Drawing on PubChem BioAssay AID1508600 (Functional Genomics Laboratory (NCATS/FGL), 2020), this text covers z-score for 108 sequences.

About 3,700 (7%) of roughly 53,000 sequences were called active.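 The calls were made as follows: active = gene knockdowns whose robust z-score for IL-1 alpha signal is at least 2 or at most -2, so actives lie on both sides; inactive = the rest.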 This is one part of the list.

The assay is described as follows: Components of the Cytosolic LPS Sensing Pathway: Gene Identification via Genome-wide siRNA Screen.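 Also: robust z of the log signal after scaling to non-targeting control siRNA wells of the plate.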 The settings on record: RAW264.7 macrophages, IL-1a HTRF, actives lie on both sides, screened at 100 nM (by protocol), cells primed 5 h with Pam3CSK4 first. An outline of the steps: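 Mouse macrophage line RAW264.7 is transfected with siRNA (100 nM final), grown 48h, primed with TLR ligand Pam3CSK4 5 h and given intracellular LipidA 24 h. IL-1a in supernatant is read by HTRF and viability by luminescence.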
In the case of GCUGCACGCACUGAUCAAGTT against Tjap1, the z-score is inactive: 1.02.
In the case of GGUUUUUCGUUUCAAUGUGTT against Tgfb3, the z-score was inactive: 0.109.
With GGAAGAACAAAUAGGUCGATT against Defb14, the z-score was inactive: 0.21.
As for GCACGCUAUUGGCUAUGAGTT against BC052040, the figure is inactive: -0.0182; as for UGCUGUUGGAGAGCAAAUATT against Slpi, inactive: -0.8; as for GUUCCCAUGUUCUUGGUGUTT against Olfr203, inactive: -1.09.
As for GGUUUCCAAACCCUUCACATT against Lor, the figure is inactive: -1.74; as for GGAAUCUUCUGAAUUGCCUTT against Cul7, inactive: 0.547; as for CGGGAAAUUCGUCUAUGUUTT against Arntl2, inactive: 0.342.
Turning to GGCCAUCUUUAGACAUAUUTT against Serpinf2, the z-score is inactive: 0.0944.
GGAUUCCACUCAAGUAUAATT against Gpr35: the z-score was inactive: 1.42.
As to GCUAAUCCUGACAUUUGGCTT against Crabp1, the z-score is inactive: 0.34.
Under GCUGUGCAGCCACAAGUGATT against Gpr142 stands active: 8.63.
CCCUUGGCCUUCCAAAUUGTT against Psg21: the z-score is inactive: -0.257.
Consider GGUUAUUUUCUUCAUGACUTT against Fbxl19, for which the z-score was inactive: -1.3.
As for CCUGACCAUGCUGUUAUAUTT against Dppa1, the figure is inactive: -0.0184.
Turning to GGCAAGUUGACCGUGUUUUTT against Dtnb, the z-score was inactive: -0.307.
Turning to CGAGUUGUAACACAUCUUUTT against Ulk4, the z-score is inactive: 0.603.
For the sequence GGAUCAAGUGGUCAAGGUATT against Ilvbl, the z-score is inactive: 0.402.
In the case of CGGGCAGCUAGAUUUCCAATT against S100a11, the z-score was active: 2.86.
With CGGAGAACGACAUUUACAATT against Hnrnpf, the z-score is inactive: 0.252.
For the sequence GGUGGAAUUGAAGAGUUCATT against Rcor3, the z-score was inactive: 0.24.
For the sequence GGAAUCUCUUUUCUUGCAUTT against Strip1, the z-score was inactive: -0.961.
On to GGCUCCUGAAAGAACUGGATT against Actrt2, for which the z-score is inactive: -0.134.
GCAAAGGAUAUGCAAUUGGTT against Bap1: the z-score is inactive: 0.257.
As for GCUUAUCAGGGUACAGCUUTT against Ipo7, the figure is inactive: -0.06; as for GGUUCUUUCAGAGUUGGCCTT against Mrpl3, inactive: 0.64; as for GGAAGUCAGGUAGUAAAACTT against Arsk, inactive: -0.76.
Under GGUAAACAUCACUCCUUGGTT against Actrt1 stands inactive: 0.528; under GGAUGCUGACAAAAAUAUCTT against Iars, inactive: 0.447; under GGCUGAAAAACUCAAUUAUTT against Boll, inactive: -0.813.
Take GCUUAAGGGAUAACAUAUUTT against Svs2: the z-score is inactive: -0.756.
In the case of GGAGAGCUAUCACAAAACATT against Olfr1018, the z-score is inactive: 0.417.
Take CGUGGACUCCGUUAUCAUUTT against Sidt1: the z-score is inactive: -0.942.
Take GCUGACAAGUGUAGCGUGUTT against Wtip: the z-score was inactive: 0.387.
As to GGACUGUGAUUGUUUCAGATT against Mep1a, the z-score is inactive: -0.0817.
For the sequence CCUGAGGCUCUCAAAAACGTT against Matk, the z-score is inactive: 0.266.
As for GGGACCUAUUCUGUCACUGTT against Akip1, the figure is inactive: 0.28.
GGAUGAAGAUGACUUUGAUTT against Hnrnpul1: the z-score is inactive: -1.62.
GCCGAUUCUUCAAUGUGCGTT against Ribc1: the z-score is inactive: -0.242.
As for GGCCUCCUAAAAUCACAGCTT against Zfp292, the figure is inactive: -0.723; as for AUAUUUCUGUCUUUCCUGGTT against Olfr1222, inactive: -0.54.
As for GGUCAAGAACCUUUAACUGTT against Pabpc1, the figure is inactive: 0.648; as for GCCUAAAAAGAGUGGGUCATT against Mllt1, active: -2.73.
Turning to CGAACUGGCAUUCACAUGUTT against Tas2r120, the z-score is inactive: 0.543.
Under GCAGUGUGAUAAAAGAGGATT against Hmbox1 stands inactive: -0.635.
Under GGAUGAGGUGAACUGAGGGTT against Tmem150b stands inactive: 0.777.
As to CCCAGGUAGAUCCUAUCCUTT against Foxo4, the z-score is inactive: -0.531.
As for CCUAUAACCGGACUUAUGATT against Ctsf, the z-score was inactive: -0.415.
GCUCAUCUGUGAAUACAAUTT against Ubr7: the z-score was inactive: 0.75.
For CGGUACAAGCUUGUGGAGCTT against Mmd2, the z-score is inactive: 1.42.
As to GGACUUCAGCAAUUCCUGUTT against Stpg1, the z-score was inactive: -0.244.
Under GGCCUUCCUUUGACUUUUUTT against Cnst stands inactive: -0.81; under GCUGACGACGCGGCCUUUCTT against Pth2, inactive: -0.444; under CGAGACCUUUAUCUUGGAGTT against Unc13d, inactive: -0.908.
CCUCUACUCAAGUUUACUUTT against Casq2: the z-score is inactive: 0.417.
As for GGAGAAUGCAAUAUCAACUTT against Osbpl9, the z-score was inactive: -0.0872.
In the case of GGAUUUGUUGGAAAUUGGATT against Anks1b, the z-score is inactive: 0.132.
Regarding GGUUUCAGGCAUUAUCACATT against Tec, the z-score was inactive: -0.812.
With CCUUUCUCCUGCUAUUUUATT against Tspyl1, the z-score is inactive: -0.1.
With GGCCAAAUCAACCAACAGCTT against Rasgrp1, the z-score was inactive: -0.551.
As for GGCAGUAGAGUCCAUCCAGTT against Maea, the figure is inactive: 0.85; as for GGAAAUGCCAUCGUCAUUUTT against Gpr1, active: 2.66; as for GGCCAUUUCUAUGAAAUUATT against Olfr1016, active: -2.
As for GGUGAGAGGCAGCUCAAGATT against Rbm41, the figure is inactive: -0.782.
Take GGAUGUCUAACCCAAAUAGTT against Ly6e: the z-score is active: 2.74.
Under GGUGAACUUGAAGAAGCCUTT against Ero1a stands inactive: -0.789; under GGCGAAAAGACCAGUUAUGTT against Man2c1, active: 2.31; under GAAUAUUCAAGCAUUACUCTT against Olfr1302, inactive: 0.291.
On to GCUAUGAAGUUCAAAGGUCTT against Arf4, for which the z-score is inactive: -0.556.
As to CGGGAUAGCUGUCCUGUUATT against Mrps14, the z-score is inactive: 0.127.
As to CGCAGAAGCUUAGCCAUCATT against Cog6, the z-score is inactive: 0.242.
GGACCUUAAAUUUAGAUGGTT against Cept1: the z-score is inactive: -1.8.
On to GGCAUCAAGUCCAUUUUUGTT against Slc12a4, for which the z-score was inactive: 0.108.
As for GGAGGAGAAAUGGAUCACATT against H2ax, the z-score is inactive: -1.15.
Under CGAGAUACUCAAUAUGUGGTT against Sumf2 stands inactive: -0.433; under CCAGAUUCGAAUAUCUAAGTT against Mrps30, inactive: 0.935.
Turning to GGAGUCUAAAGGAAAUGUATT against Slc22a21, the z-score was inactive: 0.538.
As to GGCCAUGCCUUUGUAUGCUTT against Tbc1d25, the z-score was inactive: -0.155.
For GGAAGUCUAAACAAAGCAATT against Ttc14, the z-score is inactive: -1.73.
Take GGAAUUAAUGGUGAAGUAUTT against Pcdhb19: the z-score was inactive: -0.402.
On to GUGACUCCAGUCGUGUCUATT against Bpifa5, for which the z-score was inactive: -0.972.
Regarding GGCAUUCUCCCUUUGGUGATT against Armc5, the z-score was inactive: 0.664.
Consider GGAGUUUCUUCAGUUCCUUTT against Dld, for which the z-score was inactive: 0.87.
On to CCAGUUAAGCCAAACUAUGTT against Wdr5, for which the z-score was active: -2.21.
As for GGAGAUUGCCCUCUAUGAGTT against Prom1, the figure is inactive: -1.11.
Regarding GGAGGAUGCUGACAAGGAATT against Gnat2, the z-score is inactive: -0.321.
Under CCAAUUCUACAAUCCGACATT against Tmc5 stands inactive: 1.2; under GUAUUUUACAUAAACAGGGTT against Vmn1r21, inactive: -0.856.
As for GGAAAACUGCGUUUGGAAATT against Neil3, the figure is inactive: 0.387.
On to GGAGCUGACGUGCUACUUATT against Speg, for which the z-score was active: 2.6.
On to GGCGGAAUACCCAAAAAUATT against Cdkal1, for which the z-score is inactive: 0.193.
Turning to GCCUAUGAUUUACUGGAUCTT against Oas1b, the z-score is inactive: 0.576.
Under GGUGCGUAUAGCUUUCCGATT against Fbxo46 stands inactive: -0.866; under CCAUUUGAAGGCAAAACAUTT against Zmym6, inactive: -1.87; under GGAGAUCGAACUCAGCUCATT against Ciita, inactive: -1.81.
In the case of “GUUACUGCGUGGACUGUGUTT against C730034F03Rik”, the z-score was inactive: -0.0785.
Consider GGCACACAUCAUGUCUAAATT against Plin1, for which the z-score was inactive: 0.324.
For GGCAACACUGUGGCUAAGUTT against Ankrd13d, the z-score was active: 2.74.
With CCUCAAUCGGACCUGUAUUTT against Dstn, the z-score was inactive: -1.44.
For the sequence GAGAAACUCUGUGAAUAUATT against Zfp97, the z-score was inactive: -0.451.
On to GGAGAAGACAGCAAAGUACTT against Plpp3, for which the z-score is inactive: -0.885.
On to GGAAUUUGGACAAAUUGAATT against Scaf8, for which the z-score is inactive: -1.21.
In the case of CCAGCAGCCUUCUAACUAUTT against Hnrnpa2b1, the z-score is active: 2.14.
Take GGCCCAGUCCGAUAUUCUATT against Phxr4: the z-score is inactive: -0.797.
Under GGAUCCAUAUGCUAAUCUATT against Patl1 stands inactive: 0.783; under GGAAAUUUACUCAAGAAGCTT against Trpc4ap, inactive: 0.463; under CGUGAGGGUCAACUUCUUCTT against Derl3, inactive: -0.128.
